Protein sequences, listed by entry. Tags and fused reporters are not part of them.
UniProt P53350, whole entry, looked up: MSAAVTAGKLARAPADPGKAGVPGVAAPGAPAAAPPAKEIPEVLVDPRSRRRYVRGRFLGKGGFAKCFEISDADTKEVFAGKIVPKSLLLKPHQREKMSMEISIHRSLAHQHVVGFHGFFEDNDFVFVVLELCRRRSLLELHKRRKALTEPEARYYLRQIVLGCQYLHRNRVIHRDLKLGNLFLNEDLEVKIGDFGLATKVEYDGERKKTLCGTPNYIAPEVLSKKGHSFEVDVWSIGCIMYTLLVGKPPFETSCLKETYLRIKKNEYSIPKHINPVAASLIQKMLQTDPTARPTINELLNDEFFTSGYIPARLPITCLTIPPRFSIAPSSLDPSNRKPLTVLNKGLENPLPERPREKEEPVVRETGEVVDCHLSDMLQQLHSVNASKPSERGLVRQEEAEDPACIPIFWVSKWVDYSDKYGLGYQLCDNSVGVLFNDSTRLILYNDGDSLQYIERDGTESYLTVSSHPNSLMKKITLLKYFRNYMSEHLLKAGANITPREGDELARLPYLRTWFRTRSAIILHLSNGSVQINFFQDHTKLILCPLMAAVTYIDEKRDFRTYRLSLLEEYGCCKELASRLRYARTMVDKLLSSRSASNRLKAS

Out of some 360,000 compounds screened, about 10,000 (2.8%) were called active. Inconclusive means that the source gave no clear call. Such entries were picked first, then a sample of the others. Calls follow the shape of the dose curve; as a rule, active = well fitted inhibition curve with a large enough effect; inconclusive = small, poorly fitted or top-dose-only effect; inactive = flat fitted curve, though single readings scatter. Potencies beside an inconclusive call are fits to weak or partial responses and may not hold up.
The molecules below were run against Serine/threonine-protein kinase PLK1 (Homo sapiens) (UniProt P53350) (assay: qHTS for Inhibitors of PLK1-PDB (polo-like kinase 1 - polo-box domain): Primary Screen). Settings: Plk1 PBD binding of FITC phosphopeptide, fluorescence polarization.
With `Cc1ccnc(NS(=O)(=O)c2ccc(NC(=O)CN3C(=O)CCC3=O)cc2)n1` the Potency was inconclusive: 8.44 µM [inhibitor, partial curve]. With `O=C(CCNc1cccc(F)c1)c1cc2ccccc2o1` the Potency was inconclusive: 23.8 µM [inhibitor, partial curve]. In the case of `Cc1cccc(NC(c2ccc(C)s2)c2ccc3ccc(C)nc3c2O)n1` (stereo unspecified), the Potency is reported as inconclusive: 8.44 µM [inhibitor, partial curve]. For `CC(=O)OCCCNc1cc(Sc2nc3ccccc3s2)c2nonc2c1[N+](=O)[O-]`, the Potency was active: 2.12 µM. For `COc1ccccc1NC(=S)NC(=O)c1c(-c2ccccc2Cl)noc1C`, the Potency was inconclusive: 23.8 µM [inhibitor, single point]. With `C=CCn1c(NC(=O)c2ccc(C)cc2)nc2ccccc21` the max response, negative = inhibition was inactive: -2.88%. `O=C(CN1CCN(Cc2ccccc2)CC1)N1N=CCC1c1ccccc1` (stereo unspecified) was tested, and the Potency was inconclusive: 8.44 µM [inhibitor, single point]. In the case of `COC(=O)CN1C(=O)C(O)(CC(=O)c2ccc(Cl)cc2)c2ccccc21` (stereo unspecified), the Potency is reported as inconclusive: 21.2 µM [inhibitor, partial curve]. With `CC(C)(C)c1ccc(-c2nnc(SCC(=O)NC3CCS(=O)(=O)C3)n2N)cc1` (stereo unspecified) the Potency was inconclusive: 21.2 µM [inhibitor, single point]. `Cc1ccc(-c2cc(C(=O)Nc3ccc(S(=O)(=O)Nc4nc(C)cc(C)n4)cc3)c3ccccc3n2)cc1` was tested, and the max response, negative = inhibition was inactive: -1.8%. For `O=C(CNC(=O)c1ccc(Br)o1)Nc1ncccc1O`, the max response, negative = inhibition was inactive: -9.13%. `O=C(Nc1nnc(-c2cccs2)o1)c1cccc(C(F)(F)F)c1` was tested, and the Potency was active: 29.9 µM. In the case of `O=C(Nc1ccc(S(=O)(=O)Nc2nccs2)cc1)c1ccc(=O)[nH]c1`, the Potency is reported as inconclusive: 29.9 µM [inhibitor, single point]. With `CC1CCN(S(=O)(=O)c2ccc3c(c2)c(=O)c(C(=O)NCc2cccs2)cn3C)CC1` the max response, negative = inhibition was inactive: 4.15%. For `COc1ccc(OC)c(/C=C2\S/C(=N/NC(=O)c3ccc4ccccc4c3)NC2=O)c1`, the Potency was inconclusive: 29.9 µM [inhibitor, single point]. `O=C1C(NS(=O)(=O)c2ccc(Br)cc2)=C(N2CCCCC2)C(=O)c2ccccc21` was tested, and the max response, negative = inhibition was inactive: -20.6%. `COc1ccc(/C(C)=N/Nc2nc(C)cc(-c3ccccc3)n2)cc1` was tested, and the max response, negative = inhibition was inactive: -4.45%. With `[S-]C(=Nc1ccc(Cl)cc1)N[n+]1ccccc1` the Potency was active: 16.8 µM. For `O=[N+]([O-])c1ccc2c(c1)[nH]c(=S)n2-c1ccccc1`, the Potency was active: 5.97 µM. With `COc1ccc(/C=N/NC(=O)CCSc2nc3ccccc3s2)cc1OC` the max response, negative = inhibition was inconclusive: -37.2% [inhibitor]. `COc1ccc(NC(=O)COC(=O)CNS(=O)(=O)/C=C/c2ccccc2)cc1OC` was tested, and the max response, negative = inhibition was inactive: -6.91%. `Cc1ccc(C(C)n2cc(C(=O)NCc3ccncc3)nn2)cc1` (stereo unspecified) was tested, and the Potency was inconclusive: 33.6 µM [inhibitor, single point]. With `Cc1cccc(CN2C(=O)CCSc3ccc(Cl)cc32)c1` the Potency was active: 26.7 µM. In the case of `CC(OC(=O)Nc1cccc(Cl)c1)C(=O)O` (stereo unspecified), the Potency is reported as inconclusive: 29.9 µM [inhibitor, single point]. In the case of `COc1ccc2nc(-n3c(O)c(C4=c5ccccc5=NC4=O)[nH]c3=S)sc2c1`, the Potency is reported as inconclusive: 23.8 µM [inhibitor, partial curve]. In the case of `O=S(c1ccccc1)C(c1ccccc1)c1ccccc1` (stereo unspecified), the Potency is reported as inconclusive: 23.8 µM [inhibitor, partial curve]. With `c1csc(C2=Nn3c(nnc3-c3ccncc3)SC2)c1` the Potency was active: 26.7 µM. For `S=c1nc(-c2cc(Cl)ccc2Cl)[nH][nH]1`, the Potency was active: 15 µM. With `CCOc1ccc(-c2n[nH]c(C(=O)NN)c2C)cc1` the Potency was inconclusive: 3.36 µM [inhibitor, full curve]. With `CCN(CC(=O)Nc1c(F)cccc1F)C(=O)CCC(=O)c1ccc(F)cc1` the max response, negative = inhibition was inactive: -3.88%. With `COc1ccccc1/C=C1/SC(=O)N(CCC(=O)Nc2ccc(S(=O)(=O)Nc3nccs3)cc2)C1=O` the Potency was inconclusive: 23.8 µM [inhibitor, single point]. `CC(=O)N1CN(CCCn2ccnc2)Cc2c1sc1c2CCCC1` was tested, and the Potency was inconclusive: 23.8 µM [inhibitor, partial curve]. With `CCOc1cc(/C=N/N=C2/NC(=O)C(CC(=O)O)S2)ccc1OCc1ccccc1Cl` (stereo unspecified) the Potency was inconclusive: 6.7 µM [inhibitor, partial curve]. `Cc1cccc(C)c1NC(=O)NC1(C(=O)NCC2CCCO2)CCCCC1` (stereo unspecified) was tested, and the max response, negative = inhibition was inactive: -19.6%. In the case of `O=[N+]([O-])c1cc(/C=N/N/C(=N/c2ccccn2)c2ccccn2)ccc1O`, the Potency is reported as inconclusive: 37.7 µM [inhibitor, single point]. With `Cc1nc(C(F)(F)F)ccc1C(=O)N1CCC1(C)C(=O)NS(=O)(=O)c1ccc2ccccc2c1` (stereo unspecified) the max response, negative = inhibition was inactive: -12.2%. With `CCOc1cc(/C=C2\C(=O)N(c3nc(-c4ccc(Br)cc4)cs3)N=C2c2ccccc2)ccc1O` the Potency was inconclusive: 2.99 µM [inhibitor, full curve]. With `COC(=O)C1CCN(C(=O)COC(=O)c2cc(-c3cccs3)nn2-c2ccccc2)CC1` the max response, negative = inhibition was inactive: -0.192%. For `Nc1nnc(CSCc2ccccc2Cl)s1`, the Potency was inconclusive: 23.8 µM [inhibitor, single point]. For `O=C(N/N=C/c1cc(Br)cs1)C(O)c1ccccc1` (stereo unspecified), the Potency was inconclusive: 26.7 µM [inhibitor, single point]. For `O=S(=O)(Nc1ccc(-c2cn3c(n2)SCC3)cc1)c1ccccc1F`, the Potency was inconclusive: 26.7 µM [inhibitor, partial curve]. For `COc1ccc(/C(C)=N/NC(=O)CNC(=O)/C=C\c2ccco2)cc1`, the Potency was inconclusive: 26.7 µM [inhibitor, single point]. In the case of `CN(C)c1ccc(Cl)cc1N`, the max response, negative = inhibition is reported as inactive: -16.6%. For `Cn1nnnc1SCCNCC#Cc1ccccc1`, the max response, negative = inhibition was inactive: -10.9%. `FC(F)(F)Oc1ccc(NC(=S)Nc2ccc(OC(F)(F)F)cc2)cc1` was tested, and the max response, negative = inhibition was inactive: -3.53%. With `CCOc1ccccc1CN1CCN(C/C=C/c2ccc(OC)cc2)CC1CCO` (stereo unspecified) the Potency was inconclusive: 21.2 µM [inhibitor, single point].
% is scaled to controls: 0 for no effect and ±100 for the full control effect; potency is read from the fitted curve at half-maximal effect.
Also: nearly all actives have a fitted effect of over 65% in size.
For max response, negative = inhibition in this document: series mostly up to about 57 µM.
